Hit rate of the full screen: of about 580,000 compounds, about 6,100 (1.1%) were called active. Inconclusive means that the source gave no clear call. Such entries were picked first, then a sample of the others. The call rests on the fitted dose curve; in most records, active means well fitted inhibition curve with a large enough effect; inconclusive means small, poorly fitted or top-dose-only effect, or another doubt; inactive means no such curve, though single readings can be large or run the other way. Potencies of inconclusive entries are doubtful fits and often do not repeat.
What follows are compounds tested against Polyunsaturated fatty acid lipoxygenase ALOX12 (Homo sapiens) (UniProt P18054) (assay: Primary qHTS assay for inhibitors of human arachidonate 12S-lipoxygenase (ALOX12): Round 2). Conditions: purified 12hLO, xylenol orange hydroperoxide absorbance; series mostly up to 108 µM.
Procedure, shortened: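 Purified human 12hLO (150 nM final) in 25 mM Hepes, 0.01% Triton X-100, pH 7.0 was preincubated 15 min at room temperature with compound. Then 40 uM arachidonic acid was added, 30 min. Hydroperoxide was read by Fe-XO absorbance ratio 573/405 nm.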
Potency means the concentration at half of the fitted maximal effect.

Amino acid sequences for entries named in this document (tags omitted).
UniProt P18054, whole entry, looked up: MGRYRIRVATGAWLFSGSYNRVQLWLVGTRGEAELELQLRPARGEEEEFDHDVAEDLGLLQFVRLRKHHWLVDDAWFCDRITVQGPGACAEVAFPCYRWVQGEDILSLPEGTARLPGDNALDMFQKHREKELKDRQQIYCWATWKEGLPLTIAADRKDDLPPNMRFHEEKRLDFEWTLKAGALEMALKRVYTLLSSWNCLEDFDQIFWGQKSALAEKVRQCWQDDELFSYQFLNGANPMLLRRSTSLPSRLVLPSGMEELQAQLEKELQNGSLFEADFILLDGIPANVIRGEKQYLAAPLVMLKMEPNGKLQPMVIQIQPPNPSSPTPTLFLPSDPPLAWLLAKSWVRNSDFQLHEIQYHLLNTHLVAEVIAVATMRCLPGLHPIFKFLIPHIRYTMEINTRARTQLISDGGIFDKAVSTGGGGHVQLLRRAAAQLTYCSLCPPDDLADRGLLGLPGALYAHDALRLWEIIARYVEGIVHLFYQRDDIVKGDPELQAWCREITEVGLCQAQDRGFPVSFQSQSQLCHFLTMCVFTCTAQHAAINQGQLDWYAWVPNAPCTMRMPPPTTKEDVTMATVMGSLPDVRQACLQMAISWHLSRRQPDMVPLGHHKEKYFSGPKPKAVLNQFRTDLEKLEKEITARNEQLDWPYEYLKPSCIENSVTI

Question: `CCN(C(=O)C1Cc2ccccc2C(=O)O1)c1c(N)n(Cc2ccccc2)c(=O)[nH]c1=O` (configuration not stated) was tested. Which Potency did it give?
Answer: Its Potency is inconclusive: 44.7 µM [inhibitor, single point].

Question: For `COc1ccc2[nH]c(=O)c(CN(Cc3nnnn3Cc3ccc(F)cc3)CC3CCCO3)cc2c1` (configuration not stated), which Potency is on record?
Answer: The Potency was inconclusive: 89.1 µM [inhibitor, partial curve, poor fit].

Question: How did the Potency turn out when `O=C(Nc1ncnc2c1C(c1ccccc1)c1c(ccc3ccccc13)O2)c1ccccc1` (configuration not stated) was run?
Answer: The Potency was “inactive”.

Question: `N=C1/C(=C/c2cccn2Cc2ccc(Cl)cc2)C(=O)N=C2SC=CN12` was tested. Which Potency did it give?
Answer: The Potency was “inactive”.

Question: For `Clc1cccc(Cl)c1COc1cccc(-n2cnnn2)c1`, which Potency is on record?
Answer: The Potency was “inactive”.

Question: Which Potency does the source give for `Cc1cc(SCC(=O)NC23CC4CC(CC(C4)C2)C3)nc2ccccc12` here?
Answer: The Potency was “inactive”.

Question: Which Potency does the source give for `CCOC(=O)C1=C(CN(CC)Cc2ccccc2)NC(=O)NC1c1ccc(OC)cc1` (configuration not stated) here?
Answer: The Potency was inconclusive: 79.4 µM [inhibitor, partial curve, poor fit].

Question: Which Potency does the source give for `CCC(Sc1nnc(C)c(=O)[nH]1)C(=O)Nc1cccc2ccccc12` (configuration not stated) here?
Answer: The Potency was inconclusive: 158 µM [inhibitor, partial curve, poor fit].

Question: For `O=C(O)CC(c1cccc2ccccc12)n1cccc1` (configuration not stated), which Potency is on record?
Answer: The Potency was inconclusive: 10 µM [inhibitor, full curve, poor fit].

Question: With `CCOC(=O)c1cc2c(c(CCO)n1)[C@@H](CCO)N(S(=O)C(C)(C)C)C2` (some centres not stated) as the compound, how does the Potency read?
Answer: The Potency was inconclusive: 31.6 µM [inhibitor, partial curve, poor fit].

Question: For `CCn1c2ccccc2c2cc(NC(=O)c3ccc[n+]([O-])c3)ccc21`, which Potency is on record?
Answer: The Potency was “inactive”.

Question: With `Cc1ccc(N=C2NC(=O)C(CC(=O)O)S2)cc1` (configuration not stated) as the compound, how does the Potency read?
Answer: Its Potency is inconclusive: 112 µM [inhibitor, single point].

Question: With `c1cncc(-c2nnc(SCc3nc4ccccc4[nH]3)o2)c1` as the compound, how does the Potency read?
Answer: Its Potency is “inactive”.

Question: `CC(C)[C@@H]1CN(S(=O)(=O)c2ccc(Cl)cc2Cl)C[C@H]1N(C)C` was tested. Which Potency did it give?
Answer: The Potency was inconclusive: 28.2 µM [inhibitor, partial curve].

Question: For `CC(C)CCNC(=O)CC(c1ccc(F)cc1)N1Cc2ccccc2C1=O` (configuration not stated), which Potency is on record?
Answer: The Potency was inconclusive: 3.55 µM [inhibitor, full curve, poor fit].

Question: How did the Potency turn out when `COc1ccc(N(Cc2cc(=O)[nH]c3ccccc23)C(=O)CCl)cc1` was run?
Answer: Its Potency is inconclusive: 6.31 µM [inhibitor, full curve].

Question: For `CC(=O)COc1ccc2c(c1C)O/C(=C\c1ccco1)C2=O`, which Potency is on record?
Answer: Its Potency is inconclusive: 44.7 µM [inhibitor, partial curve, poor fit].

Question: How did the Potency turn out when `COc1ccc(Nc2cc(C)nc3c(C)ccc([N+](=O)[O-])c23)cc1` was run?
Answer: The Potency was inconclusive: 112 µM [inhibitor, partial curve, poor fit].

Question: How did the Potency turn out when `CS(=O)(=O)N1CCN(c2ccc([N+](=O)[O-])cc2C(F)(F)F)CC1` was run?
Answer: Its Potency is “inactive”.

Question: `Cc1ccccc1C(=O)NC(c1ccccc1)C(C)(C)C` (configuration not stated) was tested. Which Potency did it give?
Answer: The Potency was “inactive”.

Question: `CN(C)c1ccc(C(=O)NC[C@H]2O[C@@H](CO)[C@@H](O)[C@H]2N(C)CCc2ccccc2)cc1` was tested. Which Potency did it give?
Answer: Its Potency is inconclusive: 5.62 µM [inhibitor, full curve, poor fit].

Question: For `CN(c1ccc(C(=O)NCc2ccc3c(c2)OCO3)cc1)S(=O)(=O)c1ccccc1`, which Potency is on record?
Answer: Its Potency is inconclusive: 0.891 µM [inhibitor, full curve, poor fit].

Question: For `CC(=O)Oc1cccc(/C=C2\Sc3ccccc3C2=O)c1`, which Potency is on record?
Answer: Its Potency is inconclusive: 79.4 µM [inhibitor, partial curve, poor fit].

Question: For `Nc1ccc(S(=O)(=O)Nc2nc3ccccc3o2)cc1`, which Potency is on record?
Answer: The Potency was inconclusive: 79.4 µM [inhibitor, single point].

Question: How did the Potency turn out when `O=C(C[C@H]1C(=O)N(Cc2cccnc2)C[C@@H]1Cc1ccccc1)Nc1ccc(Br)cc1` was run?
Answer: The Potency was inconclusive: 89.1 µM [inhibitor, single point].

Question: `O=C(CN1CCS(=O)(=O)CC1)N1CCN(c2ccccn2)CC1` was tested. Which Potency did it give?
Answer: Its Potency is inconclusive: 0.501 µM [inhibitor, full curve, poor fit].

Question: With `O=C(CSc1ccc(Cl)cc1)NC(=O)NC1CCCC1` as the compound, how does the Potency read?
Answer: Its Potency is inconclusive: 112 µM [inhibitor, single point].

Question: Which Potency does the source give for `COCCN(Cc1ccco1)C(=O)c1nn(Cc2ccccc2)c(=O)c2ccccc12` here?
Answer: Its Potency is “inactive”.

Question: Which Potency does the source give for `NC(=S)N/N=C1\CCCc2ccccc21` here?
Answer: Its Potency is inconclusive: 25.1 µM [inhibitor, partial curve, poor fit].

Question: For `CCOC(=O)c1[nH]c2c(c1CCC1CCCCC1)C(=O)CC(c1ccccc1)C2` (configuration not stated), which Potency is on record?
Answer: Its Potency is “inactive”.

Question: With `Cc1cc(-c2n[nH]c(=S)n2/N=C/c2ccc(Cl)c([N+](=O)[O-])c2)n[nH]1` as the compound, how does the Potency read?
Answer: The Potency was active: 39.8 µM.

Question: For `COC(=O)[C@@]1(C)CC[C@]2(C)CC[C@@]3(C)C(=CC(=O)C4[C@@]5(C)CC[C@H](O)C(C)(C)[C@@H]5CC[C@]43C)[C@H]2C1` (some centres not stated), which Potency is on record?
Answer: Its Potency is “inactive”.

Question: `CCOC(=O)c1cc2c(N)c(C(=O)c3ccc(Br)cc3)sc2[nH]c1=O` was tested. Which Potency did it give?
Answer: Its Potency is “inactive”.

Question: `O=C1CN(C(=O)c2cccc(Br)c2)C(c2ccccc2)c2cc(Cl)ccc2N1` (configuration not stated) was tested. Which Potency did it give?
Answer: Its Potency is inconclusive: 89.1 µM [inhibitor, partial curve, poor fit].

Question: Which Potency does the source give for `N#Cc1c(-n2ncnc2-c2cccc(Cl)c2)sc2c1CCCCC2` here?
Answer: The Potency was inconclusive: 89.1 µM [inhibitor, partial curve, poor fit].

Question: For `Cc1[nH]c(-c2ccccn2)nc(=S)c1Cl`, which Potency is on record?
Answer: Its Potency is inconclusive: 25.1 µM [inhibitor, partial curve, poor fit].

Question: With `COCc1nnc(NC(=O)c2ccc3ccn(C)c3c2)s1` as the compound, how does the Potency read?
Answer: Its Potency is “inactive”.

Question: With `Cc1cc(C)nc(/N=C2\NC(=O)CC(C(=O)O)N2c2ccc(Oc3ccccc3)cc2)n1` (configuration not stated) as the compound, how does the Potency read?
Answer: Its Potency is inconclusive: 89.1 µM [inhibitor, partial curve, poor fit].

Question: With `CC(=O)c1cc2c(cc1NC(=O)CSc1nnc(C3CC3)n1C1CC1)OCO2` as the compound, how does the Potency read?
Answer: The Potency was inconclusive: 100 µM [inhibitor, single point].

Question: Which Potency does the source give for `CCCC[C@@H]1C=C(C(=O)O)[C@H](c2ccc(C#N)cc2)N1S(=O)(=O)c1ccc(C)cc1` here?
Answer: The Potency was inconclusive: 44.7 µM [inhibitor, partial curve, poor fit].

Question: `S=c1[nH]nc(-c2cc(-c3ccccc3)n[nH]2)n1/N=C/c1ccc(Cl)c(Cl)c1` was tested. Which Potency did it give?
Answer: The Potency was inconclusive: 22.4 µM [inhibitor, partial curve, poor fit].

Question: `CCCCC(C)/C=C(C)/C=C(\C)C(=O)NC1=CC(O)(/C=C/C=C/C=C/C(=O)NC2=C(O)CCC2=O)C2OC2C1=O` (configuration not stated) was tested. Which Potency did it give?
Answer: The Potency was inconclusive: 31.6 µM [inhibitor, partial curve, poor fit].

Question: Which Potency does the source give for `CCOCCCNc1ncnc2c1CN(C1CCCNC1)C(=O)CN2C` (configuration not stated) here?
Answer: Its Potency is inconclusive: 7.08 µM [inhibitor, full curve, poor fit].

Question: How did the Potency turn out when `CC(C)NC(=O)CCC(=O)c1ccc2c(c1)OCCO2` was run?
Answer: The Potency was “inactive”.

Question: How did the Potency turn out when `COc1ccc(S(=O)(=O)Nc2ccccc2)cc1` was run?
Answer: Its Potency is “inactive”.

Question: Which Potency does the source give for `Cc1cccc(CSCCNC(=S)Nc2ccccc2)c1` here?
Answer: The Potency was inconclusive: 44.7 µM [inhibitor, partial curve, poor fit].

Question: For `CCN(C[C@H]1N[C@@](CC)(C(=O)OC)[C@H]2C(=O)N(Cc3ccccc3)C(=O)[C@@H]12)S(=O)(=O)c1ccc(C)cc1`, which Potency is on record?
Answer: Its Potency is inconclusive: 79.4 µM [inhibitor, single point].

Question: Which Potency does the source give for `COc1ccc(OC)c(C(=O)COC(=O)c2cc(S(N)(=O)=O)ccc2Br)c1` here?
Answer: Its Potency is inconclusive: 100 µM [inhibitor, single point].

Question: `COC(=O)c1cccc(OCC(O)Cn2cnc3cc(C)c(C)cc32)c1` (configuration not stated) was tested. Which Potency did it give?
Answer: Its Potency is “inactive”.

Question: How did the Potency turn out when `CCCCCCSc1cccc(-c2nc3cc(C)ccn3c2NCc2ccccc2)c1` was run?
Answer: The Potency was inconclusive: 79.4 µM [inhibitor, partial curve, poor fit].

Question: How did the Potency turn out when `CNC[C@H]1Oc2c(NC(=O)C3CCCCC3)cccc2C(=O)N([C@H](C)CO)C[C@@H]1C` was run?
Answer: Its Potency is inconclusive: 50.1 µM [inhibitor, partial curve, poor fit].

Question: With `c1cc2c(cc1-c1csc(NNC3=NCCCCC3)n1)OCCO2` as the compound, how does the Potency read?
Answer: Its Potency is inconclusive: 56.2 µM [inhibitor, partial curve, poor fit].

Question: Which Potency does the source give for `O=C(CCN1C(=O)/C(=C\c2cccc(Br)c2)SC1=S)N1CCOCC1` here?
Answer: Its Potency is “inactive”.

Question: With `O=c1[nH]c(SCc2ccccc2)nc2ccsc12` as the compound, how does the Potency read?
Answer: The Potency was inconclusive: 0.501 µM [inhibitor, full curve, poor fit].

Question: How did the Potency turn out when `Cc1cc(OCc2nnc(SC(=O)C3CC3)n2C)cc(C)c1Cl` was run?
Answer: Its Potency is “inactive”.

Question: With `CCOc1ccc(S(=O)(=O)Nc2nc3ccccc3nc2Cl)cc1` as the compound, how does the Potency read?
Answer: The Potency was “inactive”.

Question: How did the Potency turn out when `Cc1cc(C)cc(NC(=S)NCc2ccc3[nH]c4c(c3c2)CCCC4)c1` was run?
Answer: Its Potency is active: 39.8 µM.

Question: For `O=C(CN1CCCC1)Nc1ccccc1Cl`, which Potency is on record?
Answer: The Potency was “inactive”.

Question: For `CC(C)CC(=O)Nc1ccc(C(=O)NNC(=S)NC(=O)C2CCCCC2)cc1`, which Potency is on record?
Answer: Its Potency is “inactive”.

Question: How did the Potency turn out when `Cc1ccnc2nc(C(=O)Nc3nnc(CC(C)C)s3)nn12` was run?
Answer: The Potency was inconclusive: 2.82 µM [inhibitor, full curve, poor fit].

Question: For `CS(=O)(=O)c1ccc2nc(NC(=O)c3ccccc3Cl)sc2c1`, which Potency is on record?
Answer: The Potency was inconclusive: 89.1 µM [inhibitor, single point].

Question: With `Cc1ccc(S(=O)(=O)N2CCN(c3ncnc4c3nnn4-c3ccccc3)CC2)c(C)c1` as the compound, how does the Potency read?
Answer: The Potency was “inactive”.

Question: Which Potency does the source give for `O=C(NCc1ccccc1)C(c1ccc(C(F)(F)F)cc1)n1c(=O)c(-c2cc3ccccc3[nH]2)nc2ccccc21` (configuration not stated) here?
Answer: Its Potency is inconclusive: 100 µM [inhibitor, single point].

Question: With `O=C(O)c1cccc(NC(=S)NC(NC(=O)c2ccco2)C(Cl)(Cl)Cl)c1` (configuration not stated) as the compound, how does the Potency read?
Answer: The Potency was “inactive”.

Question: How did the Potency turn out when `CC(C)CN(c1ccccc1)S(=O)(=O)c1nnc(NC(=O)C2CCCCC2)s1` was run?
Answer: Its Potency is “inactive”.

Question: Which Potency does the source give for `C=C(C)COc1cc(Cl)ccc1C(N)=O` here?
Answer: Its Potency is “inactive”.

Question: `CC12CC3CC(C1)CC(c1ccc(O)cc1)(C3)C2` was tested. Which Potency did it give?
Answer: The Potency was inconclusive: 112 µM [inhibitor, single point].
